Data taken from PubChem BioAssay AID488905 (Broad Institute, 2010).
Inconclusive results, whose numbers are uncertain, are shown with a selection of clear calls. Calls of active or inactive are those of the source.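 How the source made its calls: active means growth inhibition lowering dye signal, with fitted half-maximal dose at most ten times the top valid dose; inconclusive means flat curve inhibiting 30 to 70 percent, or unreliable fit; inactive means the rest, including effects in the opposite direction.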

Test: growth inhibition of azole-resistant C. albicans, dose response, CaCi-8 strain, Alamar Blue, dry powder, set 3 (AID 488905)
Settings: C. albicans CaCi-8 + fluconazole, 48 h; at 26 µM (top of the series)

SMILES | activity change, negative = inhibition
O=C(c1ccccc1Cl)N1CCN(c2ccccn2)CC1 | inconclusive: -17.5%
CC(C)C(=O)N1CCN(c2ccccn2)CC1 | inconclusive: -47.9%
O=C(C1CCCCC1)N1CCN(c2ccccn2)CC1 | inconclusive: -42.2%
CC(C)C(=O)N1CCN(c2ccnc3cc(Cl)ccc23)CC1 | inconclusive: -33.2%
O=C(c1ccc(Cl)cc1)N1CCN(c2cnccn2)CC1 | inactive: -3.7%
Cn1ccnc1N1CCN(C(=O)c2ccc(Cl)cc2)CC1 | inactive: 0.78%
Cc1ccnc(N2CCN(C(=O)c3ccc(Cl)cc3)CC2)c1 | inconclusive: -51.3%
O=C(c1ccc(Cl)cc1)N1CCN(c2nc3ccccc3o2)CC1 | inconclusive: -70.4%
O=C(c1ccc(Cl)cc1)N1CCN(c2ncccc2C(F)(F)F)CC1 | inconclusive: -79.3%
O=C(c1ccccc1)N1CCN(c2ccccn2)CC1 | inactive: -14.1%
c1ccc(N2CCNCC2)nc1 | inconclusive: -32.4%
N#Cc1cccnc1N1CCN(C(=O)c2ccc(Cl)cc2)CC1 | inconclusive: -44.5%
